Test results as given in publication PMC7060136.

Legend:
[1] = biological target: PcAvh103 (Phytophthora capsici Avirulence Homolog RxLR effector), yeast two-hybrid fusion (Phytophthora capsici LT263); assay: two-hybrid; Matchmaker Gold system, yeast AH109; PcAvh103 in pGBKT7 (bait), EDS1, BAK1 or BIK1 in pGADT7 (prey); growth on QDO (SD/-Leu/-Trp/-His/-Ade)
[2] = biological target: GST-EDS1 (Arabidopsis thaliana) (UniProt Q9XF23); assay: pull-down; both purified
[3] = biological target: PcAvh103-FLAG (Phytophthora capsici); assay: co-IP; PcAvh103-FLAG co-expressed with HA-tagged proteins in Arabidopsis mesophyll protoplasts; anti-FLAG agarose 4 hr, 50 mM HEPES pH 7.5, 150 mM KCl, 1 mM EDTA, Triton X-100, 1 mM DTT; eluted with 3xFLAG peptide; anti-FLAG and anti-HA immunoblots
[4] = biological target: EDS1-FLAG (Arabidopsis thaliana) (UniProt Q9SU72); assay: co-IP; EDS1-FLAG co-expressed with EDS1-HA, PAD4-HA or SAG101-HA in Arabidopsis protoplasts in the presence or absence of PcAvh103-HIS; anti-FLAG IP, immunoblot

B1: EDS1 (Enhanced Disease Susceptibility 1), yeast two-hybrid fusion (protein, UniProt Q9XF23 1-623)
chain: MAFEALTGINGDLITRSWSASKQAYLTERYHKEEAGAVVIFAFQPSFSEKDFFDPDNKSSFGEIKLNRVQFPCMRKIGKGDVATVNEAFLKNLEAVIDPRTSFQASVEMAVRSRKQIVFTGHSSGGATAILATVWYLEKYFIRNPNVYLEPRCVTFGAPLVGDSIFSHALGREKWSRFFVNFVTRFDIVPRITLARKASVEETLPHVLAQLDPRNSSVQESEQRITEFYTSVMRDTSTVANQAVCELTGSAEAILETLSSFLELSPYRPAGTFVFSTEKRLVAVNNSDAILQMLFYTCQASDEQEWSLIPFRSIRDHHSYEELVQSMGMKLFNHLDGENSIESSLNDLGVSTRGRQYVQAALEEEKKRVENQKKIIQVIQQERFLKKLAWIEDEYKPKCQAHKNGYYDSFKVSNEENDFKANVKRAELAGVFDEVLGLLKKCQLPDEFEGDIDWIKLATRYRRLVEPLDIANYHRHLKNEDTGPYMKRGRPTRYIYAQRGYEHHILKPNGMIAEDVFWNKVNGLNLGLQLEEIQETLKNSGSECGSCFWAEVEELKGKPYEEVEVRVKTLEGMLREWITAGEVDEKEIFLEGSTFRKWWITLPKNHKSHSPLRDYMMDEITDT
- binding [1]: binds

B2: PAD4-His (protein, UniProt Q9S745 1-541)
chain: MDDCRFETSELQASVMISTPLFTDSWSSCNTANCNGSIKIHDIAGITYVAIPAVSMIQLGNLVGLPVTGDVLFPGLSSDEPLPMVDAAILKLFLQLKIKEGLELELLGKKLVVITGHSTGGALAAFTALWLLSQSSPPSFRVFCITFGSPLLGNQSLSTSISRSRLAHNFCHVVSIHDLVPRSSNEQFWPFGTYLFCSDKGGVCLDNAGSVRLMFNILNTTATQNTEEHQRYGHYVFTLSHMFLKSRSFLGGSIPDNSYQAGVALAVEALGFSNDDTSGVLVKECIETATRIVRAPILRSAELANELASVLPARLEIQWYKDRCDASEEQLGYYDFFKRYSLKRDFKVNMSRIRLAKFWDTVIKMVETNELPFDFHLGKKWIYASQFYQLLAEPLDIANFYKNRDIKTGGHYLEGNRPKRYEVIDKWQKGVKVPEECVRSRYASTTQDTCFWAKLEQAKEWLDEARKESSDPQRRSLLREKIVPFESYANTLVTKKEVSLDVKAKNSSYSVWEANLKEFKCKMGYENEIEMVVDESDAMET
- binding [2]: binds

B3: BAK1 (BRI1-associated kinase 1), yeast two-hybrid fusion (protein, UniProt Q94F62 1-615)
chain: MERRLMIPCFFWLILVLDLVLRVSGNAEGDALSALKNSLADPNKVLQSWDATLVTPCTWFHVTCNSDNSVTRVDLGNANLSGQLVMQLGQLPNLQYLELYSNNITGTIPEQLGNLTELVSLDLYLNNLSGPIPSTLGRLKKLRFLRLNNNSLSGEIPRSLTAVLTLQVLDLSNNPLTGDIPVNGSFSLFTPISFANTKLTPLPASPPPPISPTPPSPAGSNRITGAIAGGVAAGAALLFAVPAIALAWWRRKKPQDHFFDVPAEEDPEVHLGQLKRFSLRELQVASDNFSNKNILGRGGFGKVYKGRLADGTLVAVKRLKEERTQGGELQFQTEVEMISMAVHRNLLRLRGFCMTPTERLLVYPYMANGSVASCLRERPESQPPLDWPKRQRIALGSARGLAYLHDHCDPKIIHRDVKAANILLDEEFEAVVGDFGLAKLMDYKDTHVTTAVRGTIGHIAPEYLSTGKSSEKTDVFGYGVMLLELITGQRAFDLARLANDDDVMLLDWVKGLLKEKKLEALVDVDLQGNYKDEEVEQLIQVALLCTQSSPMERPKMSEVVRMLEGDGLAERWEEWQKEEMFRQDFNYPTHHPAVSGWIIGDSTSQIENEYPSGPR
- binding [1]: binds

B4: EDS1-HA (protein, UniProt Q9XF23 1-623)
chain: MAFEALTGINGDLITRSWSASKQAYLTERYHKEEAGAVVIFAFQPSFSEKDFFDPDNKSSFGEIKLNRVQFPCMRKIGKGDVATVNEAFLKNLEAVIDPRTSFQASVEMAVRSRKQIVFTGHSSGGATAILATVWYLEKYFIRNPNVYLEPRCVTFGAPLVGDSIFSHALGREKWSRFFVNFVTRFDIVPRITLARKASVEETLPHVLAQLDPRNSSVQESEQRITEFYTSVMRDTSTVANQAVCELTGSAEAILETLSSFLELSPYRPAGTFVFSTEKRLVAVNNSDAILQMLFYTCQASDEQEWSLIPFRSIRDHHSYEELVQSMGMKLFNHLDGENSIESSLNDLGVSTRGRQYVQAALEEEKKRVENQKKIIQVIQQERFLKKLAWIEDEYKPKCQAHKNGYYDSFKVSNEENDFKANVKRAELAGVFDEVLGLLKKCQLPDEFEGDIDWIKLATRYRRLVEPLDIANYHRHLKNEDTGPYMKRGRPTRYIYAQRGYEHHILKPNGMIAEDVFWNKVNGLNLGLQLEEIQETLKNSGSECGSCFWAEVEELKGKPYEEVEVRVKTLEGMLREWITAGEVDEKEIFLEGSTFRKWWITLPKNHKSHSPLRDYMMDEITDT
- binding [3]: binds

B5: PAD4-HA (Phytoalexin Deficient 4) (protein, UniProt Q9S745 1-541)
chain: MDDCRFETSELQASVMISTPLFTDSWSSCNTANCNGSIKIHDIAGITYVAIPAVSMIQLGNLVGLPVTGDVLFPGLSSDEPLPMVDAAILKLFLQLKIKEGLELELLGKKLVVITGHSTGGALAAFTALWLLSQSSPPSFRVFCITFGSPLLGNQSLSTSISRSRLAHNFCHVVSIHDLVPRSSNEQFWPFGTYLFCSDKGGVCLDNAGSVRLMFNILNTTATQNTEEHQRYGHYVFTLSHMFLKSRSFLGGSIPDNSYQAGVALAVEALGFSNDDTSGVLVKECIETATRIVRAPILRSAELANELASVLPARLEIQWYKDRCDASEEQLGYYDFFKRYSLKRDFKVNMSRIRLAKFWDTVIKMVETNELPFDFHLGKKWIYASQFYQLLAEPLDIANFYKNRDIKTGGHYLEGNRPKRYEVIDKWQKGVKVPEECVRSRYASTTQDTCFWAKLEQAKEWLDEARKESSDPQRRSLLREKIVPFESYANTLVTKKEVSLDVKAKNSSYSVWEANLKEFKCKMGYENEIEMVVDESDAMET
- binding [3]: no binding
- binding [4]: binds

B6: BAK1-HA (protein, UniProt Q94F62 26-615)
chain: NAEGDALSALKNSLADPNKVLQSWDATLVTPCTWFHVTCNSDNSVTRVDLGNANLSGQLVMQLGQLPNLQYLELYSNNITGTIPEQLGNLTELVSLDLYLNNLSGPIPSTLGRLKKLRFLRLNNNSLSGEIPRSLTAVLTLQVLDLSNNPLTGDIPVNGSFSLFTPISFANTKLTPLPASPPPPISPTPPSPAGSNRITGAIAGGVAAGAALLFAVPAIALAWWRRKKPQDHFFDVPAEEDPEVHLGQLKRFSLRELQVASDNFSNKNILGRGGFGKVYKGRLADGTLVAVKRLKEERTQGGELQFQTEVEMISMAVHRNLLRLRGFCMTPTERLLVYPYMANGSVASCLRERPESQPPLDWPKRQRIALGSARGLAYLHDHCDPKIIHRDVKAANILLDEEFEAVVGDFGLAKLMDYKDTHVTTAVRGTIGHIAPEYLSTGKSSEKTDVFGYGVMLLELITGQRAFDLARLANDDDVMLLDWVKGLLKEKKLEALVDVDLQGNYKDEEVEQLIQVALLCTQSSPMERPKMSEVVRMLEGDGLAERWEEWQKEEMFRQDFNYPTHHPAVSGWIIGDSTSQIENEYPSGPR
- binding [3]: no binding

Results are given in words; binding and its absence hold for the method and conditions named. Binding calls can cover weak binding; strength is not graded here. Where a sequence is shown, tags or fusion partners need not be part of it. For some of these results: In cells and extracts the contact can be indirect.
